Results reported in patent US20060013858A1, “Fludrocortisone treatment for hearing loss” (priority 2002, published 2006).
For some assays here: At least one structure is not confirmed: it was looked up by name or label, or the drawing left a doubt. Some results were stated once for a whole list of compounds, not compound by compound.

How the values were obtained:
[1] = tested on: MRL/MpJ-Fas^lPr autoimmune mice; assay: Auditory brainstem response (ABR) audiometry after oral steroid treatment; format: in vivo, mouse; details: 2 months of treatment
From the text: The MRL/MpJ-Fas^lPr autoimmune mouse is an established model of autoimmune sensorineural hearing loss (Ruckenstein et al., Acta OtolaryngoL 113:160-5, 1993; Trune et al. Hear. Res. 105:57-64, 1997). These mice carry a Fas gene defect that prevents apoptosis of self-recognizing T lymphocytes, leading to T cell proliferation and polyclonal B cell activation (Watanabe-Fukunaga et al. Nature 356:314-7, 1992). Spontaneous systemic autoimmune disease develops in MRL/MpJ-Fas^lPr autoimmune mice, resulting in increased serum immune complexes, anti-DNA antibodies, lymphadenopathy, elevated auditory thresholds, lowered hematocrits due to anti-erythrocyte autoantibodies, splenomegaly, increased body mass and pathological changes in the stria vascularis (Id. and Ruckenstein et al. Otolaryngol. Head Neck Surg. 121:452-6, 1999; Trune et al. Hear. Res. 155:9-20, 2001).
Mice (Jackson Laboratories, Bar Harbor, Me.) were obtained at two months of age. […]
Animals were anesthetized (kcetamine+xylazine) and the individual ears of each mouse stimulated with a closed-tube sound delivery system sealed into the ear canal. The ABR to tone-burst stimuli at 4, 8, 16, and 32 kHz was recorded and thresholds obtained for each ear. Absolute thresholds and threshold changes over the treatment period for each ear were calculated to determine if treatments impact cochlear function. […]

[2] = tested on: MRL/MpJ-Fas^lPr autoimmune mice; assay: Blood hematocrit as index of systemic autoimmune disease; format: in vivo, mouse; details: pre- vs posttreatment; any dose
From the text: (§1) This example describes methods used to measure the severity of systemic autoimmune disease, as described in Trune et al. (Hear. Res. 38:57-66, 1989). Briefly, baseline and posttreatment serum samples are taken for measurement of hematocrit, antinuclear antibodies, and serum immune complexes as indices of systemic autoimmune disease progression. […] For those mice still alive at the time of sacrifice, some spleens were weighed to assess splenomegaly, another index of systemic autoimmune disease progression.
(§2) It may not be possible to perform an extensive statistical analysis on serum measures if there are high mortality rates, if the differential mortality rates between groups lead to large differences in sample sizes, and an inability to get sufficient blood from some mice. In this case, pretreatment-posttreatment statistical comparisons (paired t-tests) are conducted only for those mice that survive the treatment period.

[3] = tested on: MRL/MpJ-Fas^lPr autoimmune mice; assay: Serum immune complexes as index of systemic autoimmune disease; format: in vivo, mouse; details: pre- vs posttreatment
From the text: as §1, §2

[4] = tested on: MRL/MpJ-Fas^lPr autoimmune mice; assay: Survival and tolerance of steroid drinking water; details: end of two months of treatment

Row | SMILES | hearing outcome compared to aldosterone [1] | change in hematocrit [2] | effect on serum immune complexes [3] | survival [4]
1 | C[C@]12CCC(=O)C=C1CC[C@H]1[C@@H]3CC[C@](O)(C(=O)CO)[C@@]3(C)C[C@H](O)[C@@]12F [Fludrocortisone] | markedly and surprisingly better | did not result in any significant change | does not result in any significant change | 60-80%
2 | C[C@]12CCC(=O)C=C1CC[C@@H]1[C@@H]2[C@@H](O)C[C@]2(C=O)[C@@H](C(=O)CO)CC[C@@H]12 [Aldosterone, d-aldosterone] | – | – | – | 60-80%
